Experimental data from patent US20240240126A1, “Microfluidic Barcode-Like Cell Sensor For Microscope-Free Quantitative Detection Of Small Amount Of Cells” (Hong Kong Baptist University, priority 2021, published 2024).
Values after ≈ are worked out from the molar mass of the structure shown.

How the values were obtained:
E. coli [1] = assay: AST with the present barcode cell sensor (PP microfluidic AST chip); type: cell-based, Escherichia coli (ATCC 25922); conditions: Escherichia coli, read-out: MIC-"barcode" Chip
Protocol: (§1) To conduct an AST on the PP-based AST chip, bacteria were pre-activated inside an incubator for 15 minutes at 37° C. before use. At the beginning of a test, the bacteria are injected through Inlet 3; the injection of the bacteria was monitored under the fluorescence microscope (FIG. 24A). After the bacteria were inoculated into the cultivation chambers, antibiotic-doped media and media alone are injected into inlet 1 and inlet 2 at a rate of 1 μL/minute, respectively (FIG. 24B). The AST chip was then incubated on a thermostat platform at 37° C. for 2 hours. To assess AMR, the bacteria inside the culture chambers of the PP AST chip were flushed into the barcode cell sensor at a rate of 1 μL/minute. […] For comparison, AST was also performed using the traditional broth microdilution method as shown in FIG. 27; the MIC values of the bacteria were assessed as the lowest concentration of antibiotics with no visible growth of bacteria.
As said, the bacteria samples have been flushed into the “barcode” cell sensor after 2 hours incubation, the accumulated bacteria bars with different lengths will be formed. […] Thus, the MIC value of the samples can be assessed by looking at the point (in a specific concentration of a given antibiotic) of the bacterial growth with significant differences using the comparison of the log [slope] values. […]

S. aureus [2] = assay: as above; type: cell-based, Staphylococcus aureus (ATCC 29213); conditions: Staphylococcus aureus, read-out: MIC-"barcode" Chip
Protocol: To conduct an AST on the PP-based AST chip, bacteria were pre-activated inside an incubator for 15 minutes at 37° C. before use. At the beginning of a test, the bacteria are injected through Inlet 3; the injection of the bacteria was monitored under the fluorescence microscope (FIG. 24A). After the bacteria were inoculated into the cultivation chambers, antibiotic-doped media and media alone are injected into inlet 1 and inlet 2 at a rate of 1 μL/minute, respectively (FIG. 24B). The AST chip was then incubated on a thermostat platform at 37° C. for 2 hours. To assess AMR, the bacteria inside the culture chambers of the PP AST chip were flushed into the barcode cell sensor at a rate of 1 μL/minute. Gram staining agent was used during the flushing process to make bacteria inside the barcode cell sensor visible be captured by a cell phone camera. For comparison, AST was also performed using the traditional broth microdilution method as shown in FIG. 27; the MIC values of the bacteria were assessed as the lowest concentration of antibiotics with no visible growth of bacteria.

E. coli [3] = assay: Broth microdilution AST; type: cell-based, Escherichia coli (ATCC 25922); conditions: Escherichia coli, read-out: MIC-Broth Microdilution
Protocol: as §1
(§2) The broth microdilution (BMD) testing of the samples was performed exactly the same according to the approved standard from CLSI and the procedures described in Nature Protocol. […] To assess the MIC values for the samples, the microplates were examined visually and the lowest concentration of the antibiotic which prevents visible growth of the bacteria was recorded as the MIC value of that sample.

S. aureus [4] = assay: Broth microdilution AST; type: cell-based, Staphylococcus aureus (ATCC 29213); conditions: Staphylococcus aureus, read-out: MIC-Broth Microdilution
Protocol: as §1, §2

Compound	MIC (E. coli [1]) [µg/mL]	MIC (S. aureus [2]) [µg/mL]	MIC (E. coli [3]) [µg/mL]	MIC (S. aureus [4]) [µg/mL]
CC1(C)S[C@@H]2[C@H](NC(=O)[C@H](N)c3ccccc3)C(=O)N2[C@H]1C(=O)O [Ampicillin]	3 to 4 (≈ 8.59 to 11.4 µM)	1.5 to 2 (≈ 4.29 to 5.72 µM)	2 to 4 (≈ 5.72 to 11.4 µM)	1 to 2 (≈ 2.86 to 5.72 µM)
CN(C)[C@@H]1C(O)=C(C(N)=O)C(=O)[C@@]2(O)C(O)=C3C(=O)c4c(O)cccc4[C@@](C)(O)[C@H]3C[C@@H]12 [Tetracycline, tetracycline]	1.5 to 2 (≈ 3.38 to 4.5 µM)	–	–	–
